Results: publication PMC6361424
No constants are given. Whether binding was seen depends on the method and setting. In cells and extracts the contact can be indirect. Some entries that bind do so weakly or less than the wild type.

The chains behind the UniProt entries cited, without tags or fusion partners.
UniProt P0A6A8: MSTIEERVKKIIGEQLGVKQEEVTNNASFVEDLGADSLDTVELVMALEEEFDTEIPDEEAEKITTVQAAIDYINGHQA

Molecular target: His7-ACPEc (E. coli acyl carrier protein) (E. coli MG1655) (UniProt P0A6A8)
Test: pull-down; His7-ACPEc and AcpSEc coexpressed in E. coli C41(DE3); clarified lysate on His60 Superflow resin in buffer O (500 mM NaCl, 50 mM Tris pH 8.8, 10 mM MgCl2, 5 mM β-mercaptoethanol, 20 mM imidazole), wash 40 mM imidazole, eluted with increasing imidazole; SDS-PAGE

binding: binds
B1: AcpSEc (E. coli Acyl Carrier Protein Synthase) (enzyme, UniProt P24224 1-126)
chain: MAILGLGTDIVEIARIEAVIARSGDRLARRVLSDNEWAIWKTHHQPVRFLAKRFAVKEAAAKAFGTGIRNGLAFNQFEVFNDELGKPRLRLWGEALKLAEKLGVANMHVTLADERHYACATVIIES
